Measurements reported in the supplement of paper PMC7661543.
± gives the standard deviation of the averaged measurements. The effect of the compound repeats well; differences between the knockouts mostly do not.

Experiments:
HCC-38 = assay: relative cell number vs DMSO control (72 h) (% of DMSO); higher = less growth inhibition (more cells)
Method: (§1)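 QMAP-Seq: a pool of 5 breast cancer cell lines (ZR-75-1, SKBR3, HCC-38, MDA-MB-231, BT-20), each carrying 12 doxycycline-inducible Cas9 sgRNA perturbations (11 knockouts plus non-targeting sgNT), was treated with compounds for 72 h at four 10-fold doses (10 nM-10 uM or 1 nM-1 uM range). Barcodes were amplified and sequenced, and cell number was interpolated from 293T spike-in standard curves. The result is expressed as % of the median of DMSO wells. Two biological replicates.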

MDA-MB-231 = assay: as above
Method: as §1

[1] = sgRNA knockout: sgATF3, 1000 nM
[2] = sgRNA knockout: sgATF3, 10000 nM
[3] = sgRNA knockout: sgATF4, 1000 nM
[4] = sgRNA knockout: sgATF4, 10000 nM
[5] = sgRNA knockout: sgATF6, 1000 nM
[6] = sgRNA knockout: sgATF6, 10000 nM
[7] = sgRNA knockout: sgATG7, 1000 nM
[8] = sgRNA knockout: sgATG7, 10000 nM
[9] = sgRNA knockout: sgERN1, 1000 nM
[10] = sgRNA knockout: sgERN1, 10000 nM
[11] = sgRNA knockout: sgHSF1, 1000 nM
[12] = sgRNA knockout: sgHSF1, 10000 nM
[13] = sgRNA knockout: sgHSF2, 1000 nM
[14] = sgRNA knockout: sgHSF2, 10000 nM
[15] = sgRNA knockout: sgKEAP1, 100 nM
[16] = sgRNA knockout: sgKEAP1, 1000 nM
[17] = sgRNA knockout: sgKEAP1, 10000 nM
[18] = sgRNA knockout: sgNFE2L2, 10 nM
[19] = sgRNA knockout: sgNFE2L2, 100 nM
[20] = sgRNA knockout: sgNFE2L2, 1000 nM
[21] = sgRNA knockout: sgNFE2L2, 10000 nM
[22] = sgRNA knockout: sgSLC35F2, 10 nM
[23] = sgRNA knockout: sgSLC35F2, 100 nM
[24] = sgRNA knockout: sgSLC35F2, 1000 nM
[25] = sgRNA knockout: sgSLC35F2, 10000 nM
[26] = sgRNA knockout: sgXBP1, 1000 nM
[27] = sgRNA knockout: sgXBP1, 10000 nM

C=CC(=O)Nc1cc2c(Nc3ccc(F)c(Cl)c3)ncnc2cc1OCCCN1CCOCC1 [Canertinib]
relative cell number (HCC-38; sgRNA knockout: sgATF3, 10 nM): 98.2 ± 8.3
relative cell number (HCC-38; sgRNA knockout: sgATF3, 100 nM): 93.74 ± 0.7
relative cell number (HCC-38; [1]): 85.1 ± 12
relative cell number (HCC-38; [2]): 8.61 ± 2
relative cell number (HCC-38; sgRNA knockout: sgATF4, 10 nM): 97.4 ± 5.4
relative cell number (HCC-38; sgRNA knockout: sgATF4, 100 nM): 110 ± 3.6
relative cell number (HCC-38; [3]): 81.2 ± 8.9
relative cell number (HCC-38; [4]): 9.98 ± 1.8
relative cell number (HCC-38; sgRNA knockout: sgATF6, 10 nM): 105 ± 4.8
relative cell number (HCC-38; sgRNA knockout: sgATF6, 100 nM): 84.3 ± 12
relative cell number (HCC-38; [5]): 88 ± 14
relative cell number (HCC-38; [6]): 8.29 ± 3.6
relative cell number (HCC-38; sgRNA knockout: sgATG7, 10 nM): 96.6 ± 7.6
relative cell number (HCC-38; sgRNA knockout: sgATG7, 100 nM): 103 ± 5
relative cell number (HCC-38; [7]): 82.1 ± 15
relative cell number (HCC-38; [8]): 7.85 ± 1.2
relative cell number (HCC-38; sgRNA knockout: sgERN1, 10 nM): 93.4 ± 6.2
relative cell number (HCC-38; sgRNA knockout: sgERN1, 100 nM): 96.4 ± 4.2
relative cell number (HCC-38; [9]): 79.2 ± 4.2
relative cell number (HCC-38; [10]): 8.04 ± 0.85
relative cell number (HCC-38; sgRNA knockout: sgHSF1, 10 nM): 85.9 ± 12
relative cell number (HCC-38; sgRNA knockout: sgHSF1, 100 nM): 80 ± 12
relative cell number (HCC-38; [11]): 83.4 ± 3.9
relative cell number (HCC-38; [12]): 12.6 ± 4
relative cell number (HCC-38; sgRNA knockout: sgHSF2, 10 nM): 94.5 ± 6.4
relative cell number (HCC-38; sgRNA knockout: sgHSF2, 100 nM): 108 ± 7.8
relative cell number (HCC-38; [13]): 82.6 ± 20
relative cell number (HCC-38; [14]): 13.4 ± 1.6
relative cell number (HCC-38; sgRNA knockout: sgKEAP1, 10 nM): 97.9 ± 6.6
relative cell number (HCC-38; [15]): 95.4 ± 7.2
relative cell number (HCC-38; [16]): 83 ± 29
relative cell number (HCC-38; [17]): 6.79 ± 4.2
relative cell number (HCC-38; [18]): 96.5 ± 0.94
relative cell number (HCC-38; [19]): 106 ± 4
relative cell number (HCC-38; [20]): 78.2 ± 6.6
relative cell number (HCC-38; [21]): 8.19 ± 0.68
relative cell number (HCC-38; [22]): 94.5 ± 12
relative cell number (HCC-38; [23]): 101 ± 4.2
relative cell number (HCC-38; [24]): 85.5 ± 9.2
relative cell number (HCC-38; [25]): 10.1 ± 0.11
relative cell number (HCC-38; sgRNA knockout: sgXBP1, 10 nM): 97.6 ± 2.7
relative cell number (HCC-38; sgRNA knockout: sgXBP1, 100 nM): 100 ± 1.6
relative cell number (HCC-38; [26]): 79.5 ± 14
relative cell number (HCC-38; [27]): 9.02 ± 0.15
relative cell number (MDA-MB-231; sgRNA knockout: sgATF3, 10 nM): 116 ± 7.3
relative cell number (MDA-MB-231; sgRNA knockout: sgATF3, 100 nM): 77.5 ± 15
relative cell number (MDA-MB-231; [1]): 72.3 ± 24
relative cell number (MDA-MB-231; [2]): 8.78 ± 1.5
relative cell number (MDA-MB-231; sgRNA knockout: sgATF4, 10 nM): 65.5 ± 12
relative cell number (MDA-MB-231; sgRNA knockout: sgATF4, 100 nM): 89 ± 8.7
relative cell number (MDA-MB-231; [3]): 50 ± 19
relative cell number (MDA-MB-231; [4]): 14.2 ± 3.8
relative cell number (MDA-MB-231; sgRNA knockout: sgATF6, 10 nM): 96.1 ± 18
relative cell number (MDA-MB-231; sgRNA knockout: sgATF6, 100 nM): 122 ± 13
relative cell number (MDA-MB-231; [5]): 100 ± 35
relative cell number (MDA-MB-231; [6]): 9.05 ± 2.6
relative cell number (MDA-MB-231; sgRNA knockout: sgATG7, 10 nM): 76.4 ± 4.4
relative cell number (MDA-MB-231; sgRNA knockout: sgATG7, 100 nM): 86.3 ± 31
relative cell number (MDA-MB-231; [7]): 67.2 ± 1.7
relative cell number (MDA-MB-231; [8]): 11.8 ± 1.9
relative cell number (MDA-MB-231; sgRNA knockout: sgERN1, 10 nM): 88.3 ± 33
relative cell number (MDA-MB-231; sgRNA knockout: sgERN1, 100 nM): 91.6 ± 19
relative cell number (MDA-MB-231; [9]): 88.1 ± 8
relative cell number (MDA-MB-231; [10]): 6.65 ± 2.7
relative cell number (MDA-MB-231; sgRNA knockout: sgHSF1, 10 nM): 88.7 ± 30
relative cell number (MDA-MB-231; sgRNA knockout: sgHSF1, 100 nM): 80.3 ± 1.7
relative cell number (MDA-MB-231; [11]): 84 ± 4.2
relative cell number (MDA-MB-231; [12]): 12.4 ± 7.8
relative cell number (MDA-MB-231; sgRNA knockout: sgHSF2, 10 nM): 79.8 ± 21
relative cell number (MDA-MB-231; sgRNA knockout: sgHSF2, 100 nM): 87.5 ± 47
relative cell number (MDA-MB-231; [13]): 81 ± 54
relative cell number (MDA-MB-231; [14]): 15.6 ± 7.1
relative cell number (MDA-MB-231; sgRNA knockout: sgKEAP1, 10 nM): 103 ± 20
relative cell number (MDA-MB-231; [15]): 75.2 ± 9.2
relative cell number (MDA-MB-231; [16]): 73.4 ± 5
relative cell number (MDA-MB-231; [17]): 10.4 ± 2.6
relative cell number (MDA-MB-231; [18]): 90.9 ± 1.4
relative cell number (MDA-MB-231; [19]): 99.3 ± 12
relative cell number (MDA-MB-231; [20]): 70.3 ± 17
relative cell number (MDA-MB-231; [21]): 10.8 ± 1.2
relative cell number (MDA-MB-231; [22]): 76.3 ± 8.1
relative cell number (MDA-MB-231; [23]): 94.9 ± 7.2
relative cell number (MDA-MB-231; [24]): 78.9 ± 1.2
relative cell number (MDA-MB-231; [25]): 13.3 ± 2.5
relative cell number (MDA-MB-231; sgRNA knockout: sgXBP1, 10 nM): 87.4 ± 14
relative cell number (MDA-MB-231; sgRNA knockout: sgXBP1, 100 nM): 75.1 ± 3.7
relative cell number (MDA-MB-231; [26]): 69.7 ± 21
relative cell number (MDA-MB-231; [27]): 8.37 ± 1.8
